{"source": "PubChem BioAssay AID652259 (Drosophila RNAi Screening Center, 2013)", "aim": "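Knock-downs that push a Wingless-driven reporter up or down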 (primary screen)", "cell system": "Drosophila clone 8 imaginal disc epithelial cells", "reagents": "long dsRNA against Drosophila genes", "conditions": "pathway stimulated by co-transfected Wingless expression plasmid", "detection": "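Dual luciferase reads per well after Wingless plasmid stimulation: reporter firefly light and Renilla control light; activity is firefly divided by Renilla, a ratio not deposited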", "reading the numbers": "firefly reporter light: higher = more Wg reporter light, before normalisation; Renilla control light: higher = more transfected or surviving cells", "call rule": "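a knock-down is a candidate when at least two out of four statistical tests show it departing from its plate mean; one test alone signals a weak candidate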", "calls": "active = candidate regulator (raises or lowers reporter); inactive = not a candidate", "note": "The deposit covers about 22,000 reagents; this is a random part of those with a known target gene and a result. In the full data, 233 (1.1%) got an active call. 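Light values are raw, unnormalised plate reads; the ratio scores behind the reporter calls were not deposited.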 Unmarked entries are inactive. Names joined by + are all predicted targets of the reagent. The record does not give: the amount of reagent, the time to read-out, the dose of the treatment."}
{"target":"TotF","PubChem SID":"SID104182097","firefly reporter light, replicate 1":2292,"firefly reporter light, replicate 2":10450,"Renilla control light, replicate 1":128,"Renilla control light, replicate 2":4448}
{"target":"Atg13","PubChem SID":"SID104196020","firefly reporter light, replicate 1":15123,"Renilla control light, replicate 1":3571}
{"target":"CG4456 + Hsp22","PubChem SID":"SID104190979","firefly reporter light, replicate 1":7241,"Renilla control light, replicate 1":2676}
{"target":"CG4456 + Hsp22","PubChem SID":"SID104190984","firefly reporter light, replicate 1":9526,"Renilla control light, replicate 1":2780}
{"target":"CG9302","PubChem SID":"SID104182983","firefly reporter light, replicate 1":5953,"Renilla control light, replicate 1":535}
{"target":"CG14642","PubChem SID":"SID104192020","firefly reporter light, replicate 1":5868,"Renilla control light, replicate 1":3105}
{"target":"Pyroxd1","PubChem SID":"SID104181890","firefly reporter light, replicate 1":2772,"firefly reporter light, replicate 2":6226,"Renilla control light, replicate 1":848,"Renilla control light, replicate 2":2229}
{"target":"sced","PubChem SID":"SID104184782","firefly reporter light, replicate 1":8570,"Renilla control light, replicate 1":2993}
{"target":"CG17059","PubChem SID":"SID104186446","firefly reporter light, replicate 1":7187,"Renilla control light, replicate 1":3108}
{"target":"CG2121","PubChem SID":"SID104186611","firefly reporter light, replicate 1":11702,"Renilla control light, replicate 1":3100}
{"target":"CG2121","PubChem SID":"SID104186612","firefly reporter light, replicate 1":3929,"firefly reporter light, replicate 2":12556,"Renilla control light, replicate 1":994,"Renilla control light, replicate 2":3685}
{"target":"Or92a","PubChem SID":"SID104196563","firefly reporter light, replicate 1":11890,"Renilla control light, replicate 1":2497}
{"target":"CG11839","PubChem SID":"SID104194190","firefly reporter light, replicate 1":21930,"Renilla control light, replicate 1":16775}
{"target":"Cyp6g1","PubChem SID":"SID104187178","firefly reporter light, replicate 1":7499,"Renilla control light, replicate 1":2176}
{"target":"Gpo2","PubChem SID":"SID104186614","firefly reporter light, replicate 1":3256,"firefly reporter light, replicate 2":5768,"Renilla control light, replicate 1":1280,"Renilla control light, replicate 2":2969}

Records listed so far whose target name begins with C or c:
{"target":"CG4456 + Hsp22","PubChem SID":"SID104190979","firefly reporter light, replicate 1":7241,"Renilla control light, replicate 1":2676}
{"target":"CG4456 + Hsp22","PubChem SID":"SID104190984","firefly reporter light, replicate 1":9526,"Renilla control light, replicate 1":2780}
{"target":"CG9302","PubChem SID":"SID104182983","firefly reporter light, replicate 1":5953,"Renilla control light, replicate 1":535}
{"target":"CG14642","PubChem SID":"SID104192020","firefly reporter light, replicate 1":5868,"Renilla control light, replicate 1":3105}
{"target":"CG17059","PubChem SID":"SID104186446","firefly reporter light, replicate 1":7187,"Renilla control light, replicate 1":3108}
{"target":"CG2121","PubChem SID":"SID104186611","firefly reporter light, replicate 1":11702,"Renilla control light, replicate 1":3100}
{"target":"CG2121","PubChem SID":"SID104186612","firefly reporter light, replicate 1":3929,"firefly reporter light, replicate 2":12556,"Renilla control light, replicate 1":994,"Renilla control light, replicate 2":3685}
{"target":"CG11839","PubChem SID":"SID104194190","firefly reporter light, replicate 1":21930,"Renilla control light, replicate 1":16775}
{"target":"Cyp6g1","PubChem SID":"SID104187178","firefly reporter light, replicate 1":7499,"Renilla control light, replicate 1":2176}

Further entries:
{"target":"Hnf4","PubChem SID":"SID104180824","firefly reporter light, replicate 1":21600,"Renilla control light, replicate 1":12246}
{"target":"Hnf4","PubChem SID":"SID104183136","firefly reporter light, replicate 1":3008,"Renilla control light, replicate 1":882}
{"target":"CG43331","PubChem SID":"SID104191463","firefly reporter light, replicate 1":21227,"Renilla control light, replicate 1":7925}
{"target":"brn","PubChem SID":"SID104198538","firefly reporter light, replicate 1":2500,"firefly reporter light, replicate 2":6546,"Renilla control light, replicate 1":1448,"Renilla control light, replicate 2":2203}
{"target":"Pabp2","PubChem SID":"SID104187293","firefly reporter light, replicate 1":2198,"firefly reporter light, replicate 2":4242,"Renilla control light, replicate 1":336,"Renilla control light, replicate 2":1466}
{"target":"flfl","PubChem SID":"SID104196266","firefly reporter light, replicate 1":10572,"Renilla control light, replicate 1":2676}
{"target":"CG4042","PubChem SID":"SID104191543","firefly reporter light, replicate 1":16232,"Renilla control light, replicate 1":4616}
{"target":"Lis-1","PubChem SID":"SID104187251","firefly reporter light, replicate 1":9130,"Renilla control light, replicate 1":3066}
{"target":"bou","PubChem SID":"SID104197716","firefly reporter light, replicate 1":15600,"Renilla control light, replicate 1":7616}
{"target":"Rai1","PubChem SID":"SID104199949","firefly reporter light, replicate 1":16489,"Renilla control light, replicate 1":6978}
{"target":"CG12540","PubChem SID":"SID104199263","firefly reporter light, replicate 1":24304,"Renilla control light, replicate 1":10432}
{"target":"spin","PubChem SID":"SID104186968","firefly reporter light, replicate 1":11491,"Renilla control light, replicate 1":5024}
{"target":"spin","PubChem SID":"SID104201791","firefly reporter light, replicate 1":4.39e5,"firefly reporter light, replicate 2":4.78e5,"Renilla control light, replicate 1":1.65e5,"Renilla control light, replicate 2":1.82e5}
{"target":"CG14759","PubChem SID":"SID104186286","firefly reporter light, replicate 1":2889,"firefly reporter light, replicate 2":8337,"Renilla control light, replicate 1":715,"Renilla control light, replicate 2":2851}
{"target":"Phax","PubChem SID":"SID104186858","firefly reporter light, replicate 1":2736,"firefly reporter light, replicate 2":8810,"Renilla control light, replicate 1":1076,"Renilla control light, replicate 2":3763}
{"target":"jus","PubChem SID":"SID104194653","reporter change call, replicate 1":"Wg reporter activity raised (active)","firefly reporter light, replicate 1":9744,"Renilla control light, replicate 1":1387}
{"target":"jus","PubChem SID":"SID104194654","firefly reporter light, replicate 1":7611,"Renilla control light, replicate 1":2176}
